# Reference: the supplement of paper PMC9433722
# Structures can show the parent of a compound that is named as a salt. Some of the results follow. Repeats are few or missing, and single values can be far off.
# System: U2OS
# Test: cell viability (CCK-8) relative to DMSO control (% of control); higher = less cytotoxic
# Conditions: 10 µM; 48 h
row,SMILES,cell viability
1,CC(C)Nc1cccnc1N1CCN(C(=O)c2cc3cc(NS(C)(=O)=O)ccc3[nH]2)CC1 [Delavirdine Mesylate],105
2,CC(C)c1ccc2oc3nc(N)c(C(=O)O)cc3c(=O)c2c1 [Amlexanox],74.1
3,CC1(C)O[C@@H]2C[C@H]3[C@@H]4CCC5=CC(=O)CC[C@]5(C)[C@@]4(F)[C@@H](O)C[C@]3(C)[C@]2(C(=O)CCl)O1 [Halcinonide],109
4,CCCC1O[C@@H]2C[C@H]3[C@@H]4CCC5=CC(=O)C=C[C@]5(C)[C@H]4[C@@H](O)C[C@]3(C)[C@]2(C(=O)CO)O1 (some centres undefined) [Budesonide],103
5,CCC(=O)O[C@]1(C(=O)CCl)[C@@H](C)C[C@H]2[C@@H]3CCC4=CC(=O)C=C[C@]4(C)[C@@]3(F)[C@@H](O)C[C@@]21C [Clobetasol Propionate],93.4
6,COc1c(N2C[C@@H]3CCCN[C@@H]3C2)c(F)cc2c(=O)c(C(=O)O)cn(C3CC3)c12 [Moxifloxacin·HCl],107
7,CN(C)CCC(c1ccc(Br)cc1)c1ccccn1 (centres undefined) [Brompheniramine Maleate],47.1
8,C=C(c1ccc(C(=O)O)cc1)c1cc2c(cc1C)C(C)(C)CCC2(C)C [Bexarotene],101
9,CC(C)(C(=O)O)c1ccc(C(O)CCCN2CCC(C(O)(c3ccccc3)c3ccccc3)CC2)cc1 (centres undefined) [Fexofenadine·HCl],93.2
10,CCCCNc1cc(C(=O)O)cc(S(N)(=O)=O)c1Oc1ccccc1 [Bumetanide],103
11,O=C1CN(/N=C/c2ccc(-c3ccc([N+](=O)[O-])cc3)o2)C(=O)N1 [Dantrolene . sodium],90.3
12,O=C1CC2(CCCC2)CC(=O)N1CCCCN1CCN(c2ncccn2)CC1 [Buspirone·HCl],105
13,CCN(CCO)CCCC(C)Nc1ccnc2cc(Cl)ccc12 (centres undefined) [Hydroxychloroquine Sulfate],93.1
14,CCCC(=O)Nc1ccc(OCC(O)CNC(C)C)c(C(C)=O)c1 (centres undefined) [Acebutolol . Hydrochloride],80.9
15,NS(=O)(=O)c1cc(C2(O)NC(=O)c3ccccc32)ccc1Cl (centres undefined) [Chlorthalidone],88.8
16,CCCc1nn(C)c2c(=O)[nH]c(-c3cc(S(=O)(=O)N4CCN(C)CC4)ccc3OCC)nc12 [Sildenafil Citrate],103
17,O=C(CCCN1CC=C(n2c(=O)[nH]c3ccccc32)CC1)c1ccc(F)cc1 [Droperidol],69.7
18,CC(C)(C)NC(=O)[C@@H]1C[C@@H]2CCCC[C@@H]2CN1C[C@@H](O)[C@H](Cc1ccccc1)NC(=O)[C@H](CC(N)=O)NC(=O)c1ccc2ccccc2n1 [Saquinavir Mesylate],93.6
19,CN(C)CCOC(c1ccccc1)c1ccccc1 [Diphenhydramine·HCl],105
20,C[N+]1(C)[C@@H]2CC[C@H]1C[C@@H](OC(=O)C(O)c1ccccc1)C2 (some centres undefined) [Homatropine Methylbromide],105

row,SMILES,cell viability
1,NC(=O)c1cn(Cc2c(F)cccc2F)nn1 [Rufinamide],96.1
2,COc1ccc([C@@H]2Sc3ccccc3N(CCN(C)C)C(=O)[C@@H]2OC(C)=O)cc1 [Diltiazem . hydrochloride],113
3,COC(=O)C1=C(C)NC(C)=C(C(=O)OC)C1c1ccccc1[N+](=O)[O-] [Nifedipine],95.1
4,CS(=O)(=O)OCCCCOS(C)(=O)=O [Busulfan],106
5,O=C1O[C@H]([C@@H](O)CO)C(O)=C1O [L-Ascorbic Acid],103
6,O=C1CCC(N2C(=O)c3ccccc3C2=O)C(=O)N1 (centres undefined) [Thalidomide],94.5
7,CC(C)NCC(O)COc1cccc2[nH]ccc12 (centres undefined) [Pindolol],117
8,CCc1nc(N)nc(N)c1-c1ccc(Cl)cc1 [Pyrimethamine],78.5
9,NC(=O)NO [Hydroxyurea],109
10,Cc1ccc(C(=O)c2cc(O)c(O)c([N+](=O)[O-])c2)cc1 [Tolcapone],87.3
11,Cc1cccc(Nc2ccncc2S(=O)(=O)NC(=O)NC(C)C)c1 [Torsemide],88.5
12,C[N+](C)(C)CC(=O)O [Betaine],108
13,CC1=C(C(=O)O)N2C(=O)[C@@H](NC(=O)[C@H](N)c3ccccc3)[C@H]2SC1 [Cephalexin Monohydrate],74.4
14,CN(C)CC[C@@H](c1ccc(Cl)cc1)c1ccccn1 [Dexchlorpheniramine Maleate],105
15,Cc1nc(-c2ccc(OCC(C)C)c(C#N)c2)sc1C(=O)O [Febuxostat],91.6
16,COc1ccccc1OCC(O)COC(N)=O (centres undefined) [Methocarbamol],109
17,CC(C)C(=O)OCC(=O)[C@@]12O[C@H](C3CCCCC3)O[C@@H]1C[C@H]1[C@@H]3CCC4=CC(=O)C=C[C@]4(C)[C@H]3[C@@H](O)C[C@@]12C [Ciclesonide],87.8
18,NC[C@H]1O[C@H](O[C@H]2[C@H](O)[C@@H](O[C@H]3O[C@H](CO)[C@@H](O)[C@H](N)[C@H]3O)[C@H](N)C[C@@H]2N)[C@H](N)C[C@@H]1O [Tobramycin],108
19,CC(C)NCC(O)c1cc(O)cc(O)c1 (centres undefined) [Metaproterenol sulfate],91.2

# Reformatted: results already given
row	SMILES	cell viability
4	CS(=O)(=O)OCCCCOS(C)(=O)=O [Busulfan]	106
5	O=C1O[C@H]([C@@H](O)CO)C(O)=C1O [L-Ascorbic Acid]	103
6	O=C1CCC(N2C(=O)c3ccccc3C2=O)C(=O)N1 (centres undefined) [Thalidomide]	94.5
7	CC(C)NCC(O)COc1cccc2[nH]ccc12 (centres undefined) [Pindolol]	117
8	CCc1nc(N)nc(N)c1-c1ccc(Cl)cc1 [Pyrimethamine]	78.5
9	NC(=O)NO [Hydroxyurea]	109
16	COc1ccccc1OCC(O)COC(N)=O (centres undefined) [Methocarbamol]	109
19	CC(C)NCC(O)c1cc(O)cc(O)c1 (centres undefined) [Metaproterenol sulfate]	91.2
